These are yes or no findings as the source states them, for the method shown. In cells and extracts the contact can be indirect. A yes stands for co-enrichment or nearness to the bait. Other partners may have been found. Where a sequence is shown, tags or fusion partners need not be part of it.
Molecular target: T1, ADAMTS13-BirA* fusion protein (UniProt Q76LX8)
T1 sequence: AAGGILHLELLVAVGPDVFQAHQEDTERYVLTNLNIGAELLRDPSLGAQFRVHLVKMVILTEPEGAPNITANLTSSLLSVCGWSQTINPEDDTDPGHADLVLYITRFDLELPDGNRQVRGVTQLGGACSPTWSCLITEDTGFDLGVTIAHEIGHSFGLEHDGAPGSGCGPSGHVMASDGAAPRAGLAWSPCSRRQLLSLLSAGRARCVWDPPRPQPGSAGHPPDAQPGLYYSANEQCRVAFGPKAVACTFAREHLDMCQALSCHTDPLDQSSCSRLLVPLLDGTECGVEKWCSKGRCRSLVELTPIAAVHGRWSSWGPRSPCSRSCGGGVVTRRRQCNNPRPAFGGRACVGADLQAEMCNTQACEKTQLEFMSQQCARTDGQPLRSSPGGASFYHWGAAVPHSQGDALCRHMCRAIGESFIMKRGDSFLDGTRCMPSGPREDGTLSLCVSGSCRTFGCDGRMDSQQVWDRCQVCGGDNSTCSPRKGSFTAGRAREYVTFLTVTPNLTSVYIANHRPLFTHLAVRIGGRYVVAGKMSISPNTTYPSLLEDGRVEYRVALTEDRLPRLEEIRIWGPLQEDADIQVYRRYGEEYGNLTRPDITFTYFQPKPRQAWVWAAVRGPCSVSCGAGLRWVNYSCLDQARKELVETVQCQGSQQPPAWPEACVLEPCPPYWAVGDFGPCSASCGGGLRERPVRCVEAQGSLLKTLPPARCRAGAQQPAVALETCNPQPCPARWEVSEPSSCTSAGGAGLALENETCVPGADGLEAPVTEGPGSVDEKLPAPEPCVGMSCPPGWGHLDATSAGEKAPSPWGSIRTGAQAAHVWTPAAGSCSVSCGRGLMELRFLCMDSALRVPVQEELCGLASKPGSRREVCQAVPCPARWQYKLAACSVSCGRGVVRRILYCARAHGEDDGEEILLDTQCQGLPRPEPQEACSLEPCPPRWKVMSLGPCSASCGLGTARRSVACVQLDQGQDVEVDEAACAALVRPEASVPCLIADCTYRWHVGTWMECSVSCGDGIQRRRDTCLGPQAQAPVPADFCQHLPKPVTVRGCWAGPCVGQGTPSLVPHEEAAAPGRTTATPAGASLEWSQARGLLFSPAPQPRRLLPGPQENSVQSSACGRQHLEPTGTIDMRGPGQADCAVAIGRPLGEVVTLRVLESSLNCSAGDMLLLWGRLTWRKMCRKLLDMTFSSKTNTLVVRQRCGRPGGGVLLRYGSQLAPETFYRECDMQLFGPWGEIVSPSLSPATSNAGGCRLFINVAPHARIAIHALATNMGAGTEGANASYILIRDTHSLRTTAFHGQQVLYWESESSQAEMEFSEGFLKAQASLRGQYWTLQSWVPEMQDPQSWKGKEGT
Assay: proximity labelling; plasma BioID: 100 nM ADAMTS13-BirA* (controls: BirA*, no protein) in citrated pooled normal plasma, 1 mM ATP every hour, 50 µM biotin, 37 °C, 4 h; streptavidin-agarose pull-down, trypsin digest, LC-MS/MS; 5 independent reactions; only the target purified

By UniProt entry, the sequences of proteins in these tests, tags left out. Residues count along the entry.
UniProt P04275, residues 764-2813: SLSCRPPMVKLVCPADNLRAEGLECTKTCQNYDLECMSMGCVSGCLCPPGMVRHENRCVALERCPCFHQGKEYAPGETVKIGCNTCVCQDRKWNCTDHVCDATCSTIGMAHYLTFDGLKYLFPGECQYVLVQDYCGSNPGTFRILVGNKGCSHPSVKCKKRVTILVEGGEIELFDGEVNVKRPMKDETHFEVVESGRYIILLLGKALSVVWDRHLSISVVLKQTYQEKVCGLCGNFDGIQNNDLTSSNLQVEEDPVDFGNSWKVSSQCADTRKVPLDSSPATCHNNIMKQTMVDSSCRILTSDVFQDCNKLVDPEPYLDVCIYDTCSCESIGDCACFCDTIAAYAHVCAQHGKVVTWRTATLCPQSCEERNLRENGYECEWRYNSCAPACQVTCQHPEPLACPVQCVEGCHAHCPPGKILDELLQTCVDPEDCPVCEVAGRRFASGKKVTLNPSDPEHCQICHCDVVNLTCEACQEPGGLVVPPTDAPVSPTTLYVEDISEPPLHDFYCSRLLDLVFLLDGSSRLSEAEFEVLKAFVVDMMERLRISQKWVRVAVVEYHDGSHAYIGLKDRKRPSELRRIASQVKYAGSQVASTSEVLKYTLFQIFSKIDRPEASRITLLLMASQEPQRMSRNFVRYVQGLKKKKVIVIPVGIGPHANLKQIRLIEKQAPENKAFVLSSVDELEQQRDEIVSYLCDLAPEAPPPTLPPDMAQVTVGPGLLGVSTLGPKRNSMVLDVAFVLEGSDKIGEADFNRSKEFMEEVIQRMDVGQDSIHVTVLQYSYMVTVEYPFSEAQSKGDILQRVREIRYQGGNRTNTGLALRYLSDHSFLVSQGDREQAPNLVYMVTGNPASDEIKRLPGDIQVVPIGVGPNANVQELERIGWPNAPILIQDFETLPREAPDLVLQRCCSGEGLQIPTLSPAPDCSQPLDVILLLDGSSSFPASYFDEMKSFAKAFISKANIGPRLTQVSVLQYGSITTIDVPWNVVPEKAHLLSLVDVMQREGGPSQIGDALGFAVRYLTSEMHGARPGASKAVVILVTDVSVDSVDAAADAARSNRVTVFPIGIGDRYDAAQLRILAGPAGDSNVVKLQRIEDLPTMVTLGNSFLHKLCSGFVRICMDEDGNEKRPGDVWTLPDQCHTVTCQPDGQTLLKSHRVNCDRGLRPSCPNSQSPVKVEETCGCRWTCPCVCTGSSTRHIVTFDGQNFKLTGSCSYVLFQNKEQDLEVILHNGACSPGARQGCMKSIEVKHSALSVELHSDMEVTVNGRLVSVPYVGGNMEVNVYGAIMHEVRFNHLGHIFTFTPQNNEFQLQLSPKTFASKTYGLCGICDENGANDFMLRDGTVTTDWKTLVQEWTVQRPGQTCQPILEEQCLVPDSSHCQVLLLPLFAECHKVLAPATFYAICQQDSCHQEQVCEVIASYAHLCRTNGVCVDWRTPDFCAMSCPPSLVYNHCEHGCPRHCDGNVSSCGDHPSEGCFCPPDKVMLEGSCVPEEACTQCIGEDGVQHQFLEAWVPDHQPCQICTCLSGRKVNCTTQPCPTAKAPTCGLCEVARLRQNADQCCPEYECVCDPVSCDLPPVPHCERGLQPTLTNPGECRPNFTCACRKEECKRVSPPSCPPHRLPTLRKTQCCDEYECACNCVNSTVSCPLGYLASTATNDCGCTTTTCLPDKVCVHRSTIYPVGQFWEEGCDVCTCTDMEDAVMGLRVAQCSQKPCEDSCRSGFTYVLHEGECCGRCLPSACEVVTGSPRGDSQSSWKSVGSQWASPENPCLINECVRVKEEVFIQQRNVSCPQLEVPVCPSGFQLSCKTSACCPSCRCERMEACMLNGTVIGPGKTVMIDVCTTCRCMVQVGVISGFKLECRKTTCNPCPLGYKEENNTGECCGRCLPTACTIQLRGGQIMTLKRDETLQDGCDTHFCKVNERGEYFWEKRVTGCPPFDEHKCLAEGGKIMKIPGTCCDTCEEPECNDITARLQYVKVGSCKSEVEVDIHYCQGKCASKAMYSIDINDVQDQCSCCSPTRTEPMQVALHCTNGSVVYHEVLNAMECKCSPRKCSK

Substance | binding
Plasminogen (in plasma) (human (endogenous in plasma)) | binds
Von Willebrand Factor (in plasma) (from UniProt P04275 764-2813) | binds

From publication PMC11032339
